# In PubChem BioAssay AID588499 (NMMLSC, 2011):
# Screen size: about 360,000 compounds; about 610 (0.17%) were called active. The inconclusive results got no clear call from the source; some entries with a clear call stand among them for comparison. No stated cut-off is given here; in the data, active means inhibition above about 30%; inconclusive means no clear call, values can overlap the other calls; inactive means below that.
# Tested on: Botulinum neurotoxin type A light chain protease (Clostridium botulinum A str. ATCC 3502)
# Experiment: blockers of BoNT/A LC substrate cleavage – biochemical, flow cytometry, MLPCN library, primary screen (AID 588499); further: plate controls were buffer without enzyme for full effect and enzyme alone for no effect
# Conditions: multiplex microsphere protease substrate cleavage, at 10 µM, active compounds read high
row,SMILES,inhibition
1,COc1cccc(NC(=O)CN2C(=O)C3(OCCCO3)c3ccccc32)c1,inconclusive: 3.7%
2,COc1ccc(CC(=O)NCCc2ccc(S(N)(=O)=O)cc2)cc1,inconclusive: 4.2%
3,O=C(Nc1ccccc1-c1nnc(SCc2ccccc2Cl)o1)c1ccccc1,inactive: -2%
4,CSc1cccc(NC(=O)Cc2ccccc2[N+](=O)[O-])c1,inactive: 0.3%
5,COc1cccc(NC(C)C(=O)N2CC(C)OC(C)C2)c1 (stereo unspecified),inconclusive: -0.7%
6,COc1cc(OC)c(/C=N/NC(=O)Cn2nc([N+](=O)[O-])cc2C)c(OC)c1,inconclusive: -1.5%
7,O=C1CC[C@@H](C(=O)N2CSC[C@@H]2C(=O)Nc2cccc(C(F)(F)F)c2)N1,inactive: -0.4%
8,COc1cc(C(=O)O/N=C(\N)c2cccc([N+](=O)[O-])c2)cc(OC)c1OC,inconclusive: -4.9%
9,C=CCn1c(O)c(C(CC)=NCc2ccco2)c(=O)[nH]c1=O,inconclusive: 10.5%
10,Cc1ccc(CN2CCC[C@]3(N[C@H](c4ccc(C)cc4)[C@@H]4C(=O)N(C)C(=O)[C@@H]43)C2=O)cc1,inactive: -0.1%
11,O=C(NC(=S)NCc1ccccc1Cl)c1cccs1,inactive: 0%
12,Cc1nn(-c2ccccc2)c(Cl)c1C(=O)Nc1ccccc1,inconclusive: -1.6%
13,Cc1ccc(S(=O)(=O)N(CC(=O)N/N=C/c2ccco2)Cc2ccccc2)cc1,inconclusive: 2%
14,CC(C)NC(=S)N/N=C/c1cccnc1,inconclusive: -33.7%
15,Cc1ccc2c(c1)c1ncnc(N3CCN(c4ccccc4)CC3)c1n2C,inactive: 0.8%
16,O=C(C[n+]1cc(-c2ccc(Cl)c(Cl)c2)n2c1CCC2)c1cccs1,inconclusive: -10.6%
17,CC1=NN(C(=O)Cc2ccccc2)C(O)(c2cccnc2)C1 (stereo unspecified),inconclusive: -3.9%
18,Cc1ccc(N(CN2CCCC2=O)C(=O)c2ccc(C)c(C)c2)cc1,inconclusive: 2.5%
19,Cc1ccc(NC(=O)CCc2ccc(S(=O)(=O)N3CCOCC3)cc2)c(C)c1,inconclusive: 2%
20,O=C(Cn1ccc2ccccc2c1=O)NCCC(=O)N1CCN(c2ccccc2)CC1,inactive: 0.2%
21,CC(=O)Nc1ccc(S(=O)(=O)NNc2ccc([N+](=O)[O-])cc2)cc1,inconclusive: 5.8%
22,COc1ccc(N=c2sc3ccccc3n2C)cc1,inconclusive: -3.2%
23,CCOC(=O)COc1c(OC)cc(Cl)cc1C1Nc2ccccc2C(=O)N1c1ccccc1 (stereo unspecified),inactive: -0.8%

row,SMILES,inhibition
1,CCOc1ccc(CC2CC(=O)NC2=O)cc1 (stereo unspecified),inconclusive: -3.2%
2,CCOC(=O)CSc1nc(C)c2cccc(C)c2n1,inconclusive: -33%
3,CC1=C(C(=O)N2CCC3(CC2)OCCO3)C2(CCC(C)CC2)OC1=O (stereo unspecified),inconclusive: 1.2%
4,O=C(NCc1ccc(F)cc1)c1ccc(S(=O)(=O)Nc2cccc(C(F)(F)F)c2)cc1,inactive: -0.4%
5,O=c1oc(Nc2cccc(F)c2)nc2ccccc12,inactive: 0%
6,Cc1cccc2cc(C(c3nnnn3C3CCCC3)N3CCOCC3)c(=O)[nH]c12 (stereo unspecified),inconclusive: 1.7%
7,COc1ccccc1N(CC(=O)Nc1ccccc1C(=O)N1CCOCC1)S(C)(=O)=O,inactive: -4.1%
8,O=C(CN(CC1CCCO1)C(=O)CNS(=O)(=O)c1ccc(Cl)cc1)NC1CCCC1 (stereo unspecified),inactive: -5.1%
9,Brc1ccccc1Cn1cnc2ccccc21,inconclusive: -2.6%
10,CC(=O)Nc1ccc(S(=O)(=O)NCCC(=O)Nc2ncccc2C)cc1,inconclusive: 10.6%
11,O=C(O)Cc1ccc(Nc2cnn(C34CC5CC(CC(CC(=O)O)(C5)C3)C4)c(=O)c2Cl)cc1,inactive: -0.6%
12,Oc1ccc(Br)cc1C=Nc1ccc2c3c(cccc13)CC2,active: 33.3%
13,CCn1c(SCC(=O)N2CCCC2)nnc1-c1ccc(S(=O)(=O)N2CCCCCC2)cc1,inconclusive: 2.1%
14,COc1ccc(NS(=O)(=O)c2cn(C)cn2)cc1,inconclusive: 13.3%
15,CN(CC(=O)Nc1c(Cl)cccc1Cl)C(=O)CNC(=O)c1ccc2c(c1)OCO2,inconclusive: 2.6%
16,CC1CN(c2cc3nccnc3cc2F)CC(C)O1 (stereo unspecified),inconclusive: 1%
17,CN(C)c1ccc(/C=C/[N+](=O)[O-])cc1,active: 50.2%
18,O=C(c1cccc(F)c1)N1CCN(S(=O)(=O)c2ccc(C(F)(F)F)cc2)CC1,inconclusive: 1.1%
19,Cc1cc(-c2onc(C)c2C(=O)O)no1,inconclusive: -16.9%
20,O=C(c1ccc(CNS(=O)(=O)c2cccc(C(F)(F)F)c2)cc1)N1CCOCC1,inconclusive: 0.9%
21,Nc1nonc1N1CCCCC1,inconclusive: -1%
22,O=S(=O)(c1ccc(-c2ccon2)s1)N1CCOCC1,inconclusive: 20.2%
23,CCC(C)(C)n1nnnc1C(c1cc2ccc(OC)cc2[nH]c1=O)N1CCc2ccccc21 (stereo unspecified),inconclusive: -2.5%

row,SMILES,inhibition
1,CC(C)C(=O)Nc1nnc(Cc2c[nH]c3ccccc23)s1,inactive: -0.9%
2,CC(=O)c1ccc(N2CCN(C(=O)CCS(=O)(=O)c3ccc4c(c3)NC(=O)CS4)CC2)cc1,inactive: -0.7%
3,CC(CC(=O)Nc1ccc2c(c1)c(=O)n(C)n2Cc1ccc(Cl)cc1)C(F)(F)F (stereo unspecified),inactive: -0.4%
4,Cc1cc(/C=C2/C(=O)N(C)C(=S)N2C)ccc1N1CCCC1,active: 36%
5,O=C(c1cccc(Br)c1)N1CCCC1,inconclusive: 2.3%
6,O=C(CCc1ccc(S(=O)(=O)N2CCOCC2)cc1)Nc1nc(COc2ccccc2)cs1,inactive: 2.1%
7,CCCOc1ccc(-c2nc(N)n[nH]2)cc1,inconclusive: -2.3%
8,O=c1c2cc(N3CCOCC3)ccc2[nH]c(=S)n1Cc1ccco1,inconclusive: 25.2%
9,c1ccc(-c2cnn3c(-c4ccccc4)c(-c4ccccc4)nc3n2)cc1,active: 37%
10,COc1ccc2oc(=O)c(-c3nc(C)cs3)cc2c1,inconclusive: 16.6%
11,Cc1nn(-c2ccccc2)c2sc(C(=O)NNC(=O)COc3ccccc3)cc12,inconclusive: -0.3%
12,CC1Cc2ccccc2N1C(=O)CSc1nnc(-c2ccc(S(=O)(=O)N3CCCC3)cc2)o1 (stereo unspecified),inconclusive: -0.5%
13,Cc1ccc2c(c1C)NC(=O)C2(O)CC(=O)c1ccc2c(c1)OCO2 (stereo unspecified),inconclusive: -0.8%
14,COCCNC(=O)CCc1c(C)nc2c(c(C)nn2-c2ccc(C)cc2)c1C,inactive: 2.8%
15,COc1ccc(C2/C(=C(\O)c3cc(C)ccc3C)C(=O)C(=O)N2CCN(C)C)cc1OC (stereo unspecified),inactive: 0.5%
16,CCCOc1ccc(C(=O)N2CCN(c3ccc(NC(=O)CC)cc3Cl)CC2)cc1,inconclusive: -1.5%
17,O=C(NCc1ccc(F)cc1)N1CCN(C(=O)c2ccccc2)CC1,inconclusive: 0.2%
18,COc1ccccc1NC(=O)c1csc(-n2nc(C)cc2C(F)(F)F)n1,inconclusive: 0.8%
19,Cc1ccc(S(=O)(=O)N2CCC3(CC2)CC(=O)c2ccccc2O3)cc1,inactive: -1.3%
20,O=C(/C=C/c1ccc(Cl)cc1)NCCSc1ccccc1,inconclusive: 7.4%
21,CC(C)OC(=O)c1cccnc1N1CCN(c2ccc(F)cc2)CC1,inactive: -2.1%
22,CC(=NC1CC1)C1=C(O)c2ccccc2C1=O,inconclusive: -0.4%
23,CCOc1ccc(NC(=O)c2ccc(N3CC4CC(C3)c3cccc(=O)n3C4)c(NC(=O)CCN3CCOCC3)c2)cc1 (stereo unspecified),inactive: 0.9%

row,SMILES,inhibition
1,O=C(NCc1cccs1)c1cccnc1C(=O)O,inconclusive: -3.1%
2,COC(=O)NCc1ccc(S(=O)(=O)N2CCOCC2)cc1,inconclusive: -1.6%
3,O=C(CSc1ccc2nnc(-c3ccccc3)n2n1)NCc1ccco1,inconclusive: -0.8%
4,Cc1ccc(CN2CCSc3ccc(C(=O)NCc4ccccn4)cc32)cc1,inactive: -0.3%
5,O=C(N/N=C/c1cccc(O)c1)c1cc(-c2ccccc2)nc2ccccc12,inactive: -1.6%
6,O=C(/C=C/c1ccccc1[N+](=O)[O-])OCC(=O)N1CCN(c2ccccc2)CC1,inactive: -0.5%
7,COc1ccc(NC(=O)C2=C(C)NC(=O)NC2c2cccc(OC)c2OC)c(OC)c1 (stereo unspecified),inconclusive: 0.6%
8,COc1cc(C)nc(-c2csc(C)n2)n1,inconclusive: 2.5%
9,O=C(Nc1ccc(-c2cnco2)cc1)c1ccc(F)cc1F,inconclusive: 28.5%
10,CCOC(=O)C1(C)CCCN(C(=O)c2cc(C)on2)C1 (stereo unspecified),inactive: -0.2%
11,COc1ccc(OC)c(S(=O)(=O)NNC(=S)Nc2ccc3c(c2)OCO3)c1,inactive: 0%
12,CC(C)(C)c1ccc(-c2n[nH]c(=S)n2C2CCCC2)cc1,inconclusive: -0.1%
13,Cc1ccc(C)c(S(=O)(=O)N2CCN(C(=O)c3cnccn3)CC2)c1,inactive: -0.2%
14,CC(=O)Nc1ccc(S(=O)(=O)N2CCN(Cc3cccc([N+](=O)[O-])c3)CC2)cc1,inactive: -1.7%
15,O=C(Nc1cccc(O)c1)N1CCOCC1,inactive: -0.3%
16,Cc1cn(CC(=O)NCCCc2ccccc2)c(=O)[nH]c1=O,inactive: -0.4%
17,COc1cc(C2NC(=O)NC(C)=C2C(=O)OC(C)(C)C)ccc1OCC(N)=O (stereo unspecified),inconclusive: -7.7%
18,CCN(CC)c1ccc(/C=C(\C#N)C(=O)c2ccc(Br)cc2)cc1,active: 49%
19,CCCNC(=O)N1c2ccccc2Sc2ccccc21,inconclusive: 2.3%
20,Cc1cccc(N(CC(=O)N2CCOCC2)S(C)(=O)=O)c1,inconclusive: -2.4%
21,Cc1ccsc1C(=O)N1CCCC(C)(C(=O)NS(=O)(=O)C2CC2)C1 (stereo unspecified),inactive: -0.4%
22,O=C(OCCN1C(=O)c2cccc3c(N4CCOCC4)ccc(c23)C1=O)c1ccccc1Cl,active: 37.4%

# An excerpt of these results, as tab-separated lines:
row	SMILES	inhibition
1	O=C(NCc1cccs1)c1cccnc1C(=O)O	inconclusive: -3.1%
2	COC(=O)NCc1ccc(S(=O)(=O)N2CCOCC2)cc1	inconclusive: -1.6%
3	O=C(CSc1ccc2nnc(-c3ccccc3)n2n1)NCc1ccco1	inconclusive: -0.8%
5	O=C(N/N=C/c1cccc(O)c1)c1cc(-c2ccccc2)nc2ccccc12	inactive: -1.6%
6	O=C(/C=C/c1ccccc1[N+](=O)[O-])OCC(=O)N1CCN(c2ccccc2)CC1	inactive: -0.5%
7	COc1ccc(NC(=O)C2=C(C)NC(=O)NC2c2cccc(OC)c2OC)c(OC)c1 (stereo unspecified)	inconclusive: 0.6%
8	COc1cc(C)nc(-c2csc(C)n2)n1	inconclusive: 2.5%
10	CCOC(=O)C1(C)CCCN(C(=O)c2cc(C)on2)C1 (stereo unspecified)	inactive: -0.2%
13	Cc1ccc(C)c(S(=O)(=O)N2CCN(C(=O)c3cnccn3)CC2)c1	inactive: -0.2%
14	CC(=O)Nc1ccc(S(=O)(=O)N2CCN(Cc3cccc([N+](=O)[O-])c3)CC2)cc1	inactive: -1.7%
15	O=C(Nc1cccc(O)c1)N1CCOCC1	inactive: -0.3%
16	Cc1cn(CC(=O)NCCCc2ccccc2)c(=O)[nH]c1=O	inactive: -0.4%
17	COc1cc(C2NC(=O)NC(C)=C2C(=O)OC(C)(C)C)ccc1OCC(N)=O (stereo unspecified)	inconclusive: -7.7%
18	CCN(CC)c1ccc(/C=C(\C#N)C(=O)c2ccc(Br)cc2)cc1	active: 49%
20	Cc1cccc(N(CC(=O)N2CCOCC2)S(C)(=O)=O)c1	inconclusive: -2.4%
21	Cc1ccsc1C(=O)N1CCCC(C)(C(=O)NS(=O)(=O)C2CC2)C1 (stereo unspecified)	inactive: -0.4%
22	O=C(OCCN1C(=O)c2cccc3c(N4CCOCC4)ccc(c23)C1=O)c1ccccc1Cl	active: 37.4%
